Results are given in words; binding and its absence hold for the method and conditions named. Binding seen in cells or lysates may run through a third protein. Some binding calls cover weakened binding; strength is not graded here. Sequences can lack the tags named with a protein.
Tests used:
[1] = target: T1, Growth arrest and DNA damage protein 45 beta (Gadd45B), 3xFLAG-tagged (human) (UniProt O75293); assay: co-IP; TPC-1 and Bcpap cells stably overexpressing Gadd45B-3×FLAG, transiently transfected with MAP3K4-His; lysates incubated overnight at 4 °C with anti-Flag or anti-His antibody, protein A/G agarose beads; Western blot with the reciprocal antibody
T1 sequence: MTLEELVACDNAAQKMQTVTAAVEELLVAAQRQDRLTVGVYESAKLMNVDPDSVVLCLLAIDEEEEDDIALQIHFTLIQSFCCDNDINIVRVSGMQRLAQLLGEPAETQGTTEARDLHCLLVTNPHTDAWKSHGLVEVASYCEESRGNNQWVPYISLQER

By UniProt entry, the sequences of proteins in these tests, tags left out.
UniProt Q9Y6R4: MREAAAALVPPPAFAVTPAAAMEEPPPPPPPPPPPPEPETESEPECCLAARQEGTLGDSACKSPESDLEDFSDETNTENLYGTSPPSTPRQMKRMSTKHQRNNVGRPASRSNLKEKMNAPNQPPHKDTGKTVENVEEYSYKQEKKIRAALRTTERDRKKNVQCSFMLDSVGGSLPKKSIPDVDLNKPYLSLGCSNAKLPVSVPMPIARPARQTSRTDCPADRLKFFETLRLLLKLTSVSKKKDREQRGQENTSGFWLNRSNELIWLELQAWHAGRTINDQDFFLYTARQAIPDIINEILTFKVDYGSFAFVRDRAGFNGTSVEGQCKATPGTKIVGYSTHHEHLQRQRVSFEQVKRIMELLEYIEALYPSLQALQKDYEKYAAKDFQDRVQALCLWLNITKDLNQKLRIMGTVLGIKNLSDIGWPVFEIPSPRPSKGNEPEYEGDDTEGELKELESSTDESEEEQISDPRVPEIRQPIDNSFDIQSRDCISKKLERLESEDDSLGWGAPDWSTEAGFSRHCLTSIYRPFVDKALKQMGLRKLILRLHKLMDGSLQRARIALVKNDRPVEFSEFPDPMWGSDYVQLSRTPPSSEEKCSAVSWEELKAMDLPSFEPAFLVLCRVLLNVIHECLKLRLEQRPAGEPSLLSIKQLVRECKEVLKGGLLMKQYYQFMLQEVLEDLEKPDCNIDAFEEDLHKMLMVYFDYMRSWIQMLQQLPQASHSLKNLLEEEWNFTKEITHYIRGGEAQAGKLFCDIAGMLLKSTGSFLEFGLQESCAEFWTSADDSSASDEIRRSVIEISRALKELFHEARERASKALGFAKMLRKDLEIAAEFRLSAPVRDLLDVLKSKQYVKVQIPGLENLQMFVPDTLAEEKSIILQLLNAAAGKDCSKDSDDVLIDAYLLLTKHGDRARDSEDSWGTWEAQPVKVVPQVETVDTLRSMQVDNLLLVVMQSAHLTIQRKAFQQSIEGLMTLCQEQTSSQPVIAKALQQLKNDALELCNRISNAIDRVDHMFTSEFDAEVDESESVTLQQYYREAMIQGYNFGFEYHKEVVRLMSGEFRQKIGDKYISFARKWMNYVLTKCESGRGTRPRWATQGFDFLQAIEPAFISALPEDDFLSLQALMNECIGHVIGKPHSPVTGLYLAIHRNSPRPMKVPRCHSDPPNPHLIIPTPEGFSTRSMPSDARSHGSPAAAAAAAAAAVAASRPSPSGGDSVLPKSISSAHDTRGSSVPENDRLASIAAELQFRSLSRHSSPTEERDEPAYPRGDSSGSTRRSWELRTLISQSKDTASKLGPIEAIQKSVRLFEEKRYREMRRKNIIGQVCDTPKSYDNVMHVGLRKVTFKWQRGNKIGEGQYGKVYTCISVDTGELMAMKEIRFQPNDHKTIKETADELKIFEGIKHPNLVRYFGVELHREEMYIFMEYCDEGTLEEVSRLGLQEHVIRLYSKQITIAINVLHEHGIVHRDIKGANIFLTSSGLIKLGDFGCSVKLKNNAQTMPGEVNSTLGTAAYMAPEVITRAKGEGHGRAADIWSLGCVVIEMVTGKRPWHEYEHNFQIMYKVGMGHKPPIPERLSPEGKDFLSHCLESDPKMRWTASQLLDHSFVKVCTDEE

[2] = target: T1, Growth arrest and DNA damage protein 45 beta (Gadd45B), 3xFLAG-tagged (human); assay: co-IP; Co-IP and Western blot of Gadd45B and MYCBP in Bcpap cells; antibodies and bait not told

MAP3K4, His-tagged (from UniProt Q9Y6R4 1-1608)
binding [1]: binds

B1: MYC-binding protein (MYCBP) (protein, UniProt Q99417 1-103)
chain: MAHYKAADSKREQFRRYLEKSGVLDTLTKVLVALYEEPEKPNSALDFLKHHLGAATPENPEIELLRLELAEMKEKYEAIVEENKKLKAKLAQYEPPQEEKRAE
binding [2]: binds
